Values from PubChem BioAssay AID743454 (Peter MacCallum Cancer Centre, 2014).

Purpose: 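Genes whose loss kills vorinostat-resistant colon cancer cells under vorinostat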 (primary screen)
Cell system: human HCT116-VR colon cancer cells, selected for vorinostat resistance
Reagents: siRNA pool against human genes, 40 nM siRNA pool
Time to read-out: vorinostat for 24 h, read-out about 72 h after transfection
Treatment: vorinostat at 2.5 µM final
Read-out: 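Cell viability by CellTiter-Fluor and caspase 3/7 activity by luminescence, each scaled to mock wells per plate, duplicates averaged, then robust z-scored over all plates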
Scale: viability robust z-score: higher = more viable cells than screen typical; caspase robust z-score: higher = more caspase 3/7 activity than screen typical
Active means: 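a knock-down is a hit when classed RV1 or RV2 for lowered viability, or CA1 or CA2 for caspase activation; those lethal without drug were dropped; hits were retested singly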
In all, the deposit lists about 18,000 reagents; shown is a part drawn at random. 450 of them (2.5%) count as active. 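Single biological run; no consistent viability z cut-off exists, so the class columns, not z-scores, define the calls.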 The numbers tell different reagents against one gene apart. Reagent sequences are not shown.

For SMPX, what was measured?
viability hit class: no change; caspase hit class: no change; viability robust z-score: 0.52; caspase robust z-score: -0.34; call: inactive

How did the screen score TLK2?
viability hit class: no change; caspase hit class: no change; viability robust z-score: 0.61; caspase robust z-score: 2.38; call: inactive

With NR1D1, how do the results read?
viability hit class: no change; caspase hit class: no change; viability robust z-score: 0.15; caspase robust z-score: -0.66; call: inactive

What did the screen give for MAP3K4?
viability hit class: no change; caspase hit class: no change; viability robust z-score: -0.39; caspase robust z-score: 0.86; call: inactive

With LILRB3, what does the deposit list?
viability hit class: no change; caspase hit class: no change; viability robust z-score: -0.4; caspase robust z-score: 0.02; call: inactive

With RANGRF, what was measured?
viability hit class: no change; caspase hit class: no change; viability robust z-score: 2.11; caspase robust z-score: 1.39; call: inactive

For ZNF302, what does the deposit list?
viability hit class: no change; caspase hit class: no change; viability robust z-score: -1.36; caspase robust z-score: -1.21; call: inactive

How did the screen score MKRN3?
viability hit class: no change; caspase hit class: no change; viability robust z-score: 1.54; caspase robust z-score: -0.7; call: inactive

How did the screen score C6orf47?
viability hit class: no change; caspase hit class: no change; viability robust z-score: -0.19; caspase robust z-score: 1.71; call: inactive

Which result is listed for CIAO2A?
viability hit class: no change; caspase hit class: no change; viability robust z-score: 0.72; caspase robust z-score: -0.25; call: inactive

Which result is listed for PTBP3?
viability hit class: no change; caspase hit class: no change; viability robust z-score: 0.2; caspase robust z-score: -0.93; call: inactive

With TTC32, what does the deposit list?
viability hit class: no change; caspase hit class: no change; viability robust z-score: -0.54; caspase robust z-score: 2.96; call: inactive

For GPS2, what does the deposit list?
viability hit class: no change; caspase hit class: no change; viability robust z-score: 0.49; caspase robust z-score: 2.06; call: inactive

For ZSWIM7, what was measured?
viability hit class: no change; caspase hit class: no change; viability robust z-score: 0.42; caspase robust z-score: 0.17; call: inactive

With RASGEF1A, how do the results read?
viability hit class: no change; caspase hit class: no change; viability robust z-score: -0.28; caspase robust z-score: -0.18; call: inactive

For NGF, how do the results read?
viability hit class: no change; caspase hit class: no change; viability robust z-score: -0.38; caspase robust z-score: -0.68; call: inactive

An excerpt from above, limited to “viability robust z-score”.
TTC32 = -0.54
GPS2 = 0.49
ZSWIM7 = 0.42
RASGEF1A = -0.28

The listing continues:
What is on record for MAP3K8?
viability hit class: no change; caspase hit class: no change; viability robust z-score: -0.34; caspase robust z-score: -1.14; call: inactive

With ATP8A2, what does the deposit list?
viability hit class: no change; caspase hit class: no change; viability robust z-score: -1.15; caspase robust z-score: -0.84; call: inactive

For WSB1, how do the results read?
viability hit class: no change; caspase hit class: no change; viability robust z-score: -0.52; caspase robust z-score: 0.64; call: inactive

For UGT3A2, how do the results read?
viability hit class: no change; caspase hit class: no change; viability robust z-score: 0.55; caspase robust z-score: -0.46; call: inactive

With AZIN1, how do the results read?
viability hit class: no change; caspase hit class: no change; viability robust z-score: 0.62; caspase robust z-score: -0.19; call: inactive

Which result is listed for ONECUT3?
viability hit class: no change; caspase hit class: no change; viability robust z-score: -0.69; caspase robust z-score: -0.69; call: inactive

What did the screen give for GNGT1?
viability hit class: no change; caspase hit class: no change; viability robust z-score: -1.71; caspase robust z-score: 0.2; call: inactive

For EFCAB7, what does the deposit list?
viability hit class: no change; caspase hit class: no change; viability robust z-score: 0.8; caspase robust z-score: 0.88; call: inactive

What is on record for FOXD4L3 #1?
viability hit class: no change; caspase hit class: no change; viability robust z-score: 0.77; caspase robust z-score: -0.65; call: inactive

What is on record for FOXD4L3 #2?
viability hit class: no change; caspase hit class: no change; viability robust z-score: -0.66; caspase robust z-score: 0.09; call: inactive

For BARHL1, what was measured?
viability hit class: no change; caspase hit class: no change; viability robust z-score: -1.43; caspase robust z-score: -0.24; call: inactive
